Assay results from PubChem BioAssay AID2685 (National Center for Advancing Translational Sciences (NCATS), 2010).
The other results are listed elsewhere or left out. Shown are side measurements of this screen, not its main read-out; they come without a call. Most of these compounds were active or inconclusive in the main read-out, so they are no random draw. The note in brackets gives the kind of curve behind each potency; many fits are weak.

Assay: qHTS Assay for Lipid Storage Modulators in Drosophila S3 Cells;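 as to cell number change: cells counted by Cell Tracker Red CMTPX staining in the red channel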
Details: BODIPY lipid droplet fluorescence, 18-24 h; for cell number change: measured here: cell count max response, cells fed with added oleic acid
Summary of the method: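 Laser-scanning cytometry quantifies lipid droplet accumulation (500–530 nm total intensity; droplet/cell object ratio) in oleic acid-fed (400 uM added) Drosophila S3 cells treated with a concentration series. 20 uM Triacsin C defined 100% inhibition.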

[1] = measured here: cell number channel AC50, cells fed with added oleic acid
[2] = measured here: lipid fluorescence (Fed channel) AC50, cells fed with added oleic acid

| SMILES | cell number change | AC50 [1] | AC50 [2] |
| --- | --- | --- | --- |
| COc1cccc(CNc2nc(-c3cccnc3)nc3ccccc23)c1 | -13.8% | 0.731 µM [rising, full curve, poor fit] | – |
| Cc1ccc(C)c(NC(=O)CN2C(=O)CC(C)S(=O)(=O)c3ccccc32)c1 (stereo not drawn) | -23.7% | – | – |
| O=C(NCc1ccco1)c1ccc(Cl)s1 | 6.73% | 1.84 µM [rising, partial curve] | 2.06 µM [rising, partial curve] |
| O=Cc1ccc(OCC(=O)NCC2CCCO2)cc1 (stereo not drawn) | 22.4% | – | 1.58 µM [rising, full curve] |
| COC(=O)c1[nH]c2cccc(Cl)c2c1NC(=O)CN1CCN(CCO)CC1 | 1.52% | 0.103 µM [falling, full curve, poor fit] | 0.0731 µM [falling, full curve, poor fit] |
| O=C(NCc1ccc(Cl)cc1)c1cc2ccccn2n1 | – | – | 29.1 µM [rising, single point] |
| O=C(CN1C(=O)c2cccc([N+](=O)[O-])c2C1=O)OCC(=O)N1CCCCC1 | -96.7% | 29.1 µM [falling, single point] | 29.1 µM [falling, single point] |
| C=CCC1C=CCC(CC=C)N1C(=O)c1ccccc1[N+](=O)[O-] (stereo not drawn) | 44.7% | 6.51 µM [falling, single point] | – |
| COc1cc(C=O)ccc1OCCCOc1ccccc1[N+](=O)[O-] | -21.5% | 0.00517 µM [falling, full curve, poor fit] | 25.9 µM [rising, partial curve] |
| COC(=O)c1sccc1NC(=O)/C=C/c1c(Cl)cccc1Cl | -8.13% | – | 4.11 µM [rising, single point] |
| COc1ccc(S(=O)(=O)N(CC(=O)Nc2ccccc2C(=O)N2CCOCC2)c2ccc(F)cc2)cc1 | -22.5% | – | 0.092 µM [falling, full curve, poor fit] |
| CCOC(=O)c1cnc(-n2nc(C)cc2C)nc1NCc1ccccc1 | – | 1.84 µM [rising, partial curve] | 1.46 µM [rising, partial curve] |
| COc1cc(/C=C2/CC(C)OC2=O)c([N+](=O)[O-])cc1OC (stereo not drawn) | -13% | – | – |
| COc1ccc(NC(=O)CNS(=O)(=O)c2ccc(Cl)cc2)cc1OC | 0.344% | 0.58 µM [falling, single point] | 8.2 µM [rising, partial curve] |
| O=c1c2c(nc3nc[nH]n13)CCC2 | -58.8% | 23.1 µM [falling, single point] | – |
| COc1ccc(OC)c(NC(=O)c2ccc(S(=O)(=O)N3CCN(C)CC3)cc2)c1 | 15.8% | – | 3.66 µM [rising, partial curve] |
| CC1CCN(S(=O)(=O)c2cc(C(=O)Nc3ccccn3)ccc2Br)CC1 | -25% | 0.058 µM [falling, full curve, poor fit] | 1.46 µM [falling, single point] |
| COc1ccc(NC(=S)N2CCC(C(=O)N3CCCCCC3)CC2)cc1 | 75.2% | 20.6 µM [rising, single point] | – |
| COc1ccc(/C=C\c2nc(=O)c3ccccc3o2)cc1 | -27.7% | – | 29.1 µM [falling, single point] |

| SMILES | cell number change | AC50 [1] | AC50 [2] |
| --- | --- | --- | --- |
| COc1ccccc1Nc1nnc(SCC(=O)N2CCCC2=O)s1 | 62% | 0.00651 µM [rising, full curve, poor fit] | 0.0184 µM [rising, full curve] |
| NC(=O)COc1ncnc2scc(-c3ccc(F)cc3)c12 | 44.3% | 0.184 µM [rising, full curve] | 0.116 µM [rising, full curve] |
| O=C(CN1CCN(c2ccccn2)CC1)NCc1cccs1 | 14.3% | – | 0.58 µM [falling, full curve] |
| O=C1c2ccccc2S(=O)(=O)N1CC1CC(c2ccccc2)=NO1 (stereo not drawn) | 14% | – | 2.06 µM [rising, full curve, poor fit] |
| N#CC(C(=O)O)=C1CCCC1 | – | – | 20.6 µM [falling, single point] |
| Cc1ccc(CC(=O)NCC(O)c2ccccc2)cc1 (stereo not drawn) | 19.4% | – | 0.517 µM [rising, full curve] |
| Cc1ccc(-n2c(SCC(N)=O)nnc2-c2ccco2)cc1 | 8.52% | – | – |
| COc1cccc(C(=O)NCc2ccc3c(c2)cc(C)n3C)c1 | -4.69% | – | – |
| O=C(CSc1c2c(nc3cc(Cl)ccc13)CCCC2)NCCCN1CCOCC1 | -13.8% | – | 4.11 µM [falling, single point] |
| COc1ccc(S(=O)(=O)CC2(O)CCN(C(=O)C(C)(C)C)CC2)cc1 | 35.6% | 29.1 µM [rising, single point] | 29.1 µM [rising, single point] |
| CN1C(C)(C)c2ccccc2OS1(=O)=O | 7.77% | – | – |
| Cc1cc2oc(=O)cc(Cn3ccnc3)c2cc1Cl | 20.7% | – | 2.06 µM [rising, full curve, poor fit] |
| CSCC[C@H](NC(=O)C1CCN(S(=O)(=O)c2ccccc2)CC1)C(=O)NC1CC1 | – | – | 0.651 µM [rising, single point] |
| CCN(CC)c1ccc(NC(=O)COC(=O)CCC(=O)c2cccs2)cc1 | -2.46% | – | 0.58 µM [rising, single point] |
| CC(C)c1ccc(/C=N/NC(=O)c2c(Cl)cnn2C)cc1 | -1.07% | – | 1.46 µM [rising, partial curve] |
| O=C(CCc1[nH]c2ccccc2c1Sc1ccccc1)N(CCO)CCO | -20.9% | – | 29.1 µM [falling, single point] |
| COc1ccccc1NC(=O)CC(NCCN(C)C)C(=O)O (stereo not drawn) | -170% | 23.1 µM [falling, partial curve, poor fit] | 18.4 µM [falling, partial curve] |
| COc1ccc(NC(=O)c2cc(-c3ccccc3)nc3c2c(C)nn3-c2ccccc2)c(OC)c1 | 17.2% | – | 20.6 µM [rising, partial curve] |
| O=C(Nc1ccc2ccccc2c1)N1CCN(c2ncccc2C(F)(F)F)CC1 | -11.7% | – | 0.731 µM [falling, single point] |

Some of these compounds in order of SMILES length, ascending:

| SMILES | cell number change | AC50 [1] | AC50 [2] |
| --- | --- | --- | --- |
| O=c1c2c(nc3nc[nH]n13)CCC2 | -58.8% | 23.1 µM [falling, single point] | – |
| Cc1ccc(CC(=O)NCC(O)c2ccccc2)cc1 (stereo not drawn) | 19.4% | – | 0.517 µM [rising, full curve] |
| COC(=O)c1[nH]c2cccc(Cl)c2c1NC(=O)CN1CCN(CCO)CC1 | 1.52% | 0.103 µM [falling, full curve, poor fit] | 0.0731 µM [falling, full curve, poor fit] |
